No constants are given. Whether binding was seen depends on the method and setting. Some entries that bind do so weakly or less than the wild type. For part of these data: Sequences can lack the tags named with a protein.
B1: MAM279-DOTAM (GS-MAM279-tag, SEQ ID NO: 15, conjugated to the chelator DOTAM) (designed binder)
chain: GSDLGKKLLEAARAGQDDEVRELLKAGADVNAKDYFSHTPLHLAARNGHLKIVEVLLKAGADVNAKDFAGKTPLHLAADAGHLEIVEVLLKAGADVNAQDIFGKTPADIAADAGHEDIAEVLQKAAGSPTPTPTTPTPTPTTPTPTPTGSDLGKKLLAAAAQGQDDEVRELLKAGANVNAKDLFGYTPLHLAAWRGHLEIVEVLLKAGADVNAKDAAGETPLHLAAWFGHLEIVEVLLKAGADVNAQDLQGKTPADLAAKEGHEDIAEVLQKAAGSGSC
notes: also called DOTAM-conjugated MAM279; MAM279 conjugate
B2: Biotinylated 2D DARPin MAM279 (SEQ ID NO: 11) with a Glycine-Serine (GS) at the N-terminal end (designed binder)
chain: GSDLGKKLLEAARAGQDDEVRELLKAGADVNAKDYFSHTPLHLAARNGHLKIVEVLLKAGADVNAKDFAGKTPLHLAADAGHLEIVEVLLKAGADVNAQDIFGKTPADIAADAGHEDIAEVLQKAAGSPTPTPTTPTPTPTTPTPTPTGSDLGKKLLAAAAQGQDDEVRELLKAGANVNAKDLFGYTPLHLAAWRGHLEIVEVLLKAGADVNAKDAAGETPLHLAAWFGHLEIVEVLLKAGADVNAQDLQGKTPADLAAKEGHEDIAEVLQKAA
modifications: biotinylated (site and any tag used not stated)
notes: also called Biotinylated DARPin MAM279
B3: Biotinylated 1D DARPin MAM093 (SEQ ID NO: 1) with a Glycine-Serine (GS) at the N-terminal end (designed binder)
chain: GSDLGKKLLAAAAQGQDDEVRELLKAGANVNAKDLFGYTPLHLAAWRGHLEIVEVLLKAGADVNAKDAAGETPLHLAAWFGHLEIVEVLLKAGADVNAQDLQGKTPADLAAKEGHEDIAEVLQKAA
modifications: biotinylated (site and any tag used not stated)
notes: also called Biotinylated DARPin MAM093

Sequences of proteins named here, by UniProt entry; tags and fusion partners are left off. Residues count along the entry.
UniProt O88516, residues 33-490: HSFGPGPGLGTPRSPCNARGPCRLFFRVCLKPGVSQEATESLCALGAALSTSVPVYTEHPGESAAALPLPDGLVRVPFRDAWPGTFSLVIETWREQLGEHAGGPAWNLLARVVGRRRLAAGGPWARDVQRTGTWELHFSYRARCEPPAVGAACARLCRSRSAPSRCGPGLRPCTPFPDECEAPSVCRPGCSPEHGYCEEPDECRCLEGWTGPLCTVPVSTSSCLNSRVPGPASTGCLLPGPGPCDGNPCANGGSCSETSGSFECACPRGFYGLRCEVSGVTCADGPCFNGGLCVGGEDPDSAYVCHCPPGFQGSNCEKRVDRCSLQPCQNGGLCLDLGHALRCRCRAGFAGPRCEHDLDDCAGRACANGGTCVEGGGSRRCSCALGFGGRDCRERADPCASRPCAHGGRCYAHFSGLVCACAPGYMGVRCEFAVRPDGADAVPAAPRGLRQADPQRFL

Legend:
Assay in all cases: SPR
[1] = molecular target: Cyno DLL3-ECD (extracellular domain of cynomolgus macaque DLL3, residues 27 to 466, Avi-tag, 3C site, Fc knob into hole) (cynomolgus macaque)
[2] = molecular target: Dog DLL3-NTD (truncated dog DLL3, N-Terminal Domain, residues 27-189, C-terminal 6xHis and Avi-tag) (dog)
[3] = molecular target: mouse DLL3-ECD (recombinant extracellular domain of mouse DLL3) (mouse) (UniProt O88516)

Binder | binding [1] | binding [2] | binding [3]
B1 | binds | binds | 
B2 | binds |  | binds
B3 | binds |  | binds
